# Structures can show the parent of a compound that is named as a salt. For at least one compound, name, drawing or mass did not settle the structure.
# Experiment: Test for light stability, aqueous solution exposed to daylight (HPLC content)
# Format: physicochemical
# Settings: stored for 4 weeks at 25° C. daylight, Hydrochloride
# Method: The resulting aqueous solutions were stored at 25° C. for 4 weeks while being exposed to daylight. A measurement was made of the contents of the salts with resort to HPLC under the same conditions as in the chemical stability test.
compound,measurement,value
"CCOC(=O)C1=C(COCCN)NC(C)=C(C(=O)OC)C1c1ccccc1Cl (stereo not shown) [Hydrochloride, Amlodipine Hydrochloride]",Content (HPLC),60.5%
